# Source: published antibiotic growth screens (doi:10.1016/j.cell.2020.01.021)
# The full ranking holds about 2,300 compounds; the median of “relative growth” is about 1, and the lowest 2% start at about 0.046. The list shows a part of the results, in another mix than the full data.
# System: E. coli BW25113
# Assay: relative growth (fraction of control); higher = less inhibition
# Settings: 50 µM
row,Compound,relative growth
1,O=C1CC2OCC=C3CN4CCC56c7ccccc7N1C5C2C3CC46.O=S(=O)(O)O (centres undefined),1.02
2,CCC(CO)NC(=O)C1C=C2c3cccc4c3c(cn4C)CC2N(C)C1.O=C(O)C=CC(=O)O (centres undefined),0.905
3,CCC(COC(=O)c1cc(OC)c(OC)c(OC)c1)(c1ccccc1)N(C)C.O=C(O)C=CC(=O)O (centres undefined),0.993
4,CNC(=O)Oc1ccc2c(c1)C1(C)CCN(C)C1N2C.O=C(O)c1ccccc1O (centres undefined),1.14
5,CC(CO)NC(=O)C1C=C2c3cccc4[nH]cc(c34)CC2N(C)C1.O=C(O)C=CC(=O)O (centres undefined),1.1
6,Br.CN1C2CC(OC(=O)C(CO)c3ccccc3)CC1C(O)C2 (racemic),1.1
7,CN1CCC2(C)c3cc(O)ccc3N(C)C12.O=C(O)C=CC(=O)O (centres undefined),0.961
8,CC1C=CC=CCCC=CC=CC=CC=CC(OC2OC(C)C(O)C(N)C2O)CC2OC(O)(CC(O)C(O)CCC(O)CC(O)CC(O)CC(=O)OC(C)C(C)C1O)CC(O)C2C(=O)O (centres undefined),1.06
9,COc1ccc2c(c1OC)C(=O)OC2C1c2cc3c(cc2CCN1C)OCO3 (centres undefined),1.09
10,CCN(C)C(=O)Oc1cccc(C(C)N(C)C)c1.O=C(O)C(O)C(O)C(=O)O (centres undefined),0.922
11,CN1C2CCC1CC(OC(=O)C(CO)c1ccccc1)C2 (centres undefined),1.1
12,COc1cc(C2c3cc4c(cc3C(O)C3COC(=O)C23)OCO4)cc(OC)c1OC (centres undefined),0.871
13,CNCC(O)c1ccc(O)cc1.CNCC(O)c1ccc(O)cc1.O=C(O)C(O)C(O)C(=O)O (centres undefined),1.06
14,O=C(O)C=CC(=O)O.c1ccc2nc(N3CCNCC3)ccc2c1,0.991
